No constants are given. Whether binding was seen depends on the method and setting. In cells and extracts the contact can be indirect. Here binding means that the protein was enriched with, or labelled near, the bait; the list need not be complete. Sequences can lack the tags named with a protein.
Legend:
[1] = biological target: T1, Hspa13^Flag (human (cDNA from HEK293T)), P48723; assay: affinity purification with mass spectrometry; settings: remark: other sources report otherwise
T1 chain: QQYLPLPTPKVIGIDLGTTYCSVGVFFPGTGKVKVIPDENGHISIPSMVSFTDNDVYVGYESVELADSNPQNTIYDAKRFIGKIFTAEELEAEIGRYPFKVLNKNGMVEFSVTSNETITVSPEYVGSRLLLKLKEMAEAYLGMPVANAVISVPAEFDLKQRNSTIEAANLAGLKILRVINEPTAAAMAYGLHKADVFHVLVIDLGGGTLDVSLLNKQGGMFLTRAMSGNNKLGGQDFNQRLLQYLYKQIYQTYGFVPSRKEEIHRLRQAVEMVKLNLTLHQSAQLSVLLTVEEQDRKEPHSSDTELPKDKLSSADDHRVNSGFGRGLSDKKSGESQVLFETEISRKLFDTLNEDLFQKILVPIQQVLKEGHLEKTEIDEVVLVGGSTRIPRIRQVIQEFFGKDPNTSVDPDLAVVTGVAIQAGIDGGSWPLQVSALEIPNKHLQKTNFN

[2] = biological target: T2, Hspa13^Flag (human (cDNA from HEK293T)) (UniProt P48723); assay: affinity purification with mass spectrometry
T2 sequence: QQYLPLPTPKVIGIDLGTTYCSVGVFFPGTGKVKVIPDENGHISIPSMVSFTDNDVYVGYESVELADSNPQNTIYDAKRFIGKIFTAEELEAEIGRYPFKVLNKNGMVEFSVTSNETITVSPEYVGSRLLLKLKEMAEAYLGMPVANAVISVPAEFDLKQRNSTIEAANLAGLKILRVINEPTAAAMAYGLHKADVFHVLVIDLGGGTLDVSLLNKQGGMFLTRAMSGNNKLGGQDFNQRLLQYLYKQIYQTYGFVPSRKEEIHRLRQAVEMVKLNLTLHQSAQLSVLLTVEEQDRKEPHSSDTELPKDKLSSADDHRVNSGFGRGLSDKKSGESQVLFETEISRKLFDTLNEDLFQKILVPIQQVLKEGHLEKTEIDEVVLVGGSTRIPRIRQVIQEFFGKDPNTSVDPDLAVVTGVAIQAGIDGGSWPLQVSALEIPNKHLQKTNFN

binding [1] | binding [2] | Binder
binds |  | HYOU1, Q9Y4L1 33-999 (protein) LAVMSVDLGSESMKVAIVKPGVPMEIVLNKESRRKTPVIVTLKENERFFGDSAASMAIKNPKATLRYFQHLLGKQADNPHVALYQARFPEHELTFDPQRQTVHFQISSQLQFSPEEVLGMVLNYSRSLAEDFAEQPIKDAVITVPVFFNQAERRAVLQAARMAGLKVLQLINDNTATALSYGVFRRKDINTTAQNIMFYDMGSGSTVCTIVTYQMVKTKEAGMQPQLQIRGVGFDRTLGGLEMELRLRERLAGLFNEQRKGQRAKDVRENPRAMAKLLREANRLKTVLSANADHMAQIEGLMDDVDFKAKVTRVEFEELCADLFERVPGPVQQALQSAEMSLDEIEQVILVGGATRVPRVQEVLLKAVGKEELGKNINADEAAAMGAVYQAAALSKAFKVKPFVVRDAVVYPILVEFTREVEEEPGIHSLKHNKRVLFSRMGPYPQRKVITFNRYSHDFNFHINYGDLGFLGPEDLRVFGSQNLTTVKLKGVGDSFKKYPDYESKGIKAHFNLDESGVLSLDRVESVFETLVEDSAEEESTLTKLGNTISSLFGGGTTPDAKENGTDTVQEEEESPAEGSKDEPGEQVELKEEAEAPVEDGSQPPPPEPKGDATPEGEKATEKENGDKSEAQKPSEKAEAGPEGVAPAPEGEKKQKPARKRRMVEEIGVELVVLDLPDLPEDKLAQSVQKLQDLTLRDLEKQEREKAANSLEAFIFETQDKLYQPEYQEVSTEEQREEISGKLSAASTWLEDEGVGATTVMLKEKLAELRKLCQGLFFRVEERKKWPERLSALDNLLNHSSMFLKGARLIPEMDQIFTEVEMTTLEKVINETWAWKNATLAEQAKLPATEKPVLLSKDIEAKMMALDREVQYLLNKAKFTKPRPRPKDKNGTRAEPPLNASASDQGEKVIPPAGQTEDAEPISEPEKVETGSEPGDTEPLELGGPGAEPEQKEQSTGQKRPLKNDEL
 | binds | GANAB (protein, UniProt Q14697 29-944) ITLAVDRSNFKTCEESSFCKRQRSIRPGLSPYRALLDSLQLGPDSLTVHLIHEVTKVLLVLELQGLQKNMTRFRIDELEPRRPRYRVPDVLVADPPIARLSVSGRDENSVELTMAEGPYKIILTARPFRLDLLEDRSLLLSVNARGLLEFEHQRAPRVSQGSKDPAEGDGAQPEETPRDGDKPEETQGKAEKDEPGAWEETFKTHSDSKPYGPMSVGLDFSLPGMEHVYGIPEHADNLRLKVTEGGEPYRLYNLDVFQYELYNPMALYGSVPVLLAHNPHRDLGIFWLNAAETWVDISSNTAGKTLFGKMMDYLQGSGETPQTDVRWMSETGIIDVFLLLGPSISDVFRQYASLTGTQALPPLFSLGYHQSRWNYRDEADVLEVDQGFDDHNLPCDVIWLDIEHADGKRYFTWDPSRFPQPRTMLERLASKRRKLVAIVDPHIKVDSGYRVHEELRNLGLYVKTRDGSDYEGWCWPGSAGYPDFTNPTMRAWWANMFSYDNYEGSAPNLFVWNDMNEPSVFNGPEVTMLKDAQHYGGWEHRDVHNIYGLYVHMATADGLRQRSGGMERPFVLARAFFAGSQRFGAVWTGDNTAEWDHLKISIPMCLSLGLVGLSFCGADVGGFFKNPEPELLVRWYQMGAYQPFFRAHAHLDTGRREPWLLPSQHNDIIRDALGQRYSLLPFWYTLLYQAHREGIPVMRPLWVQYPQDVTTFNIDDQYLLGDALLVHPVSDSGAHGVQVYLPGQGEVWYDIQSYQKHHGPQTLYLPVTLSSIPVFQRGGTIVPRWMRVRRSSECMKDDPITLFVALSPQGTAQGELFLDDGHTFNYQTRQEFLLRRFSFSGNTLVSSSADPEGHFETPIWIERVVIIGAGKPAAVVLQTKGSPESRLSFQHDPETSVLVLRKPGINVASDWSIHLR
 | binds | PDIA4 (protein, UniProt P13667 21-645) VAGAEGPDEDSSNRENAIEDEEEEEEEDDDEEEDDLEVKEENGVLVLNDANFDNFVADKDTVLLEFYAPWCGHCKQFAPEYEKIANILKDKDPPIPVAKIDATSASVLASRFDVSGYPTIKILKKGQAVDYEGSRTQEEIVAKVREVSQPDWTPPPEVTLVLTKENFDEVVNDADIILVEFYAPWCGHCKKLAPEYEKAAKELSKRSPPIPLAKVDATAETDLAKRFDVSGYPTLKIFRKGRPYDYNGPREKYGIVDYMIEQSGPPSKEILTLKQVQEFLKDGDDVIIIGVFKGESDPAYQQYQDAANNLREDYKFHHTFSTEIAKFLKVSQGQLVVMQPEKFQSKYEPRSHMMDVQGSTQDSAIKDFVLKYALPLVGHRKVSNDAKRYTRRPLVVVYYSVDFSFDYRAATQFWRSKVLEVAKDFPEYTFAIADEEDYAGEVKDLGLSESGEDVNAAILDESGKKFAMEPEEFDSDTLREFVTAFKKGKLKPVIKSQPVPKNNKGPVKVVVGKTFDSIVMDPKKDVLIEFYAPWCGHCKQLEPVYNSLAKKYKGQKGLVIAKMDATANDVPSDRYKVEGFPTIYFAPSGDKKNPVKFEGGDRDLEHLSKFIEEHATKLSRTKEEL
 | binds | SRPRB (protein, UniProt Q9Y5M8 1-271) MASADSRRVADGGGAGGTFQPYLDTLRQELQQTDPTLLSVVVAVLAVLLTLVFWKLIRSRRSSQRAVLLVGLCDSGKTLLFVRLLTGLYRDTQTSITDSCAVYRVNNNRGNSLTLIDLPGHESLRLQFLERFKSSARAIVFVVDSAAFQREVKDVAEFLYQVLIDSMGLKNTPSFLIACNKQDIAMAKSAKLIQQQLEKELNTLRVTRSAAPSTLDSSSTAPAQLGKKGKEFEFSQLPLKVEFLECSAKGGRGDVGSADIQDLEKWLAKIA
 | binds | ZMPSTE24 (protein, UniProt O75844 1-475) MGMWASLDALWEMPAEKRIFGAVLLFSWTVYLWETFLAQRQRRIYKTTTHVPPELGQIMDSETFEKSRLYQLDKSTFSFWSGLYSETEGTLILLFGGIPYLWRLSGRFCGYAGFGPEYEITQSLVFLLLATLFSALTGLPWSLYNTFVIEEKHGFNQQTLGFFMKDAIKKFVVTQCILLPVSSLLLYIIKIGGDYFFIYAWLFTLVVSLVLVTIYADYIAPLFDKFTPLPEGKLKEEIEVMAKSIDFPLTKVYVVEGSKRSSHSNAYFYGFFKNKRIVLFDTLLEEYSVLNKDIQEDSGMEPRNEEEGNSEEIKAKVKNKKQGCKNEEVLAVLGHELGHWKLGHTVKNIIISQMNSFLCFFLFAVLIGRKELFAAFGFYDSQPTLIGLLIIFQFIFSPYNEVLSFCLTVLSRRFEFQADAFAKKLGKAKDLYSALIKLNKDNLGFPVSDWLFSMWHYSHPPLLERLQALKTMKQH
 | binds | SEC11C (protein, UniProt Q9BY50 1-192) MVRAGAVGAHLPASGLDIFGDLKKMNKRQLYYQVLNFAMIVSSALMIWKGLIVLTGSESPIVVVLSGSMEPAFHRGDLLFLTNFREDPIRAGEIVVFKVEGRDIPIVHRVIKVHEKDNGDIKFLTKGDNNEVDDRGLYKEGQNWLEKKDVVGRARGFLPYVGMVTIIMNDYPKFKYALLAVMGAYVLLKRES
 | binds | SEC11A (protein, UniProt P67812 1-179) MLSLDFLDDVRRMNKRQLYYQVLNFGMIVSSALMIWKGLMVITGSESPIVVVLSGSMEPAFHRGDLLFLTNRVEDPIRVGEIVVFRIEGREIPIVHRVLKIHEKQNGHIKFLTKGDNNAVDDRGLYKQGQHWLEKKDVVGRARGFVPYIGIVTILMNDYPKFKYAVLFLLGLFVLVHRE

Reference: doi:10.1101/2022.06.27.497790
